# Test results as given in PubChem BioAssay AID493014 (National Center for Advancing Translational Sciences (NCATS), 2011).
# Screen size: about 340,000 compounds; about 170 (0.05%) were called active. The shares of active, inactive and inconclusive entries below differ from those in the screen. The call rests on the fitted dose curve; in most records, active means well fitted inhibition curve with a large enough effect in the signal ratio, with a control signal flat (not every such curve was filed as active); inconclusive means small, poorly fitted or top-dose-only effect, or effect the other way, or a change in a side signal; inactive means flat fitted curve, though single readings scatter; the % refers to the signal ratio. Potencies beside an inconclusive call are fits to weak or partial responses and may not hold up.
# Assay: qHTS Assay to Find Inhibitors of Chronic Active B-Cell Receptor Signaling;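 on activity change, negative = inhibition: plate controls were basal doxycycline-induced cells for no effect and cells given 10 µM MG132 for full effect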
# Conditions: ABC-DLBCL IkBa-CBG/CBR reporter, luminescence ratio (green luciferase fused to IkBa over red control in TMD8 lymphoma cells), 4 h; activity change, negative = inhibition: at 46.1 µM (top of the series)
# Outline: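 TMD8 ABC-DLBCL cells carrying doxycycline-inducible green luciferase fused to IkappaBalpha plus unfused red luciferase were exposed to compounds (up to 46 uM) for 4 hrs at 37C. Activity came from the overlap-corrected green/red luminescence ratio.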
# Potency means the concentration at half of the fitted maximal effect.
Structure (SMILES),"activity change, negative = inhibition",Potency
CCCn1cc2c3c(cccc31)C1CC(C)CN(C)C1C2 (centres undefined),inconclusive: 11.3%,–
Cn1cccc1/C=C1/C(=O)NC(=O)N(Cc2ccccc2)C1=O,–,"inconclusive: 16.4 µM [falling, partial curve, poor fit]"
COc1cc(C2c3cc4c(cc3CC3COC(=O)C32)OCO4)cc(OC)c1OC (centres undefined),–,"inconclusive: 6.51 µM [falling, partial curve]"
CC(=O)N1N=C(c2c(O)n(C)c(=O)n(C)c2=O)CC1c1ccccc1 (centres undefined),–,"inconclusive: 31.6 µM [rising, single point]"
COc1cc(-c2nc3ccc4ccccc4c3c3c2CCC3)cc(OC)c1OC,inconclusive: 7.07%,–
CCCCCCNC(=O)N[C@H](Cc1ccc(O)cc1)C(=O)NCCC[C@H]1CN2C(=NC[C@H]2CCC)N1CC1CCC1,–,"inconclusive: 15.8 µM [falling, partial curve, poor fit]"
CN1CCN(C(=S)SCC(=O)Nc2ccc(Cl)cc2C(=O)c2ccccc2)CC1,inconclusive: -2.63%,–
COC(=O)C(O)(c1ccc(N(C)C(=O)c2cccs2)cc1)C(F)(F)F (centres undefined),–,"inconclusive: 15.8 µM [falling, single point]"
Cc1ccc(Cn2nc(C(=O)Nc3ccc(Br)cc3)cc2C)cc1,–,"inconclusive: 11.2 µM [falling, partial curve, poor fit]"
C/C(=N\NP(=S)(c1ccccc1)c1ccccc1)c1ccc(O)cc1O,inconclusive: -0.0657%,–
Cc1ccccc1C(O)(Cc1ccccc1)C1CN2CCC1CC2 (centres undefined),inconclusive: -26%,–
O=C(Nc1cnn(Cc2ccccc2)c1)c1nc2ncccn2n1,inconclusive: -0.681%,–
Cc1ccn2cc(C(=O)NCc3ccco3)nc2c1,–,"inconclusive: 12.6 µM [falling, partial curve, poor fit]"
Cc1[nH]c2ccccc2c1/C=N/NC(=O)c1ccccc1,–,"inconclusive: 28.2 µM [falling, single point]"
C/C(N)=C(/C#N)C(=O)CSc1nc2cc(Cl)ccc2c(=O)n1-c1ccc(C)cc1,inconclusive: -26%,–
COC(=O)C1=C(c2ccc(F)cc2OCc2ccccc2)C[C@@H]2CC[C@H]1N2C(=O)NCc1ccccc1C(F)(F)F,inactive: 0.393%,–
C/C1=C\[C@@H](C)C/C=C/[C@H]2[C@@H]3O[C@]3(C)[C@@H](C)[C@H]3[C@H](Cc4c[nH]c5ccccc45)NC(=O)[C@]32C(=O)/C=C/C(=O)[C@@H]1O,–,"inconclusive: 35.5 µM [rising, single point]"
O=C(COc1ccc2ccccc2c1)N1CCN(Cc2c[nH]c3ccccc23)CC1,inconclusive: -19.4%,–
COc1ccc(N2C(=O)NC(=O)/C(=C\c3cn(C)c4ccccc34)C2=O)cc1,inconclusive: 3.57%,–
O=c1[nH]c(=S)n(Cc2ccc(F)cc2)c(O)c1/C=N/N1CCCCC1,inactive: 0.308%,–
Cc1ccc(-n2nc(C)c(C3C(C#N)=C(N)Oc4c3c(=O)oc3ccccc43)c2Cl)cc1 (centres undefined),–,"inconclusive: 20.6 µM [falling, single point]"
COC(=O)C1=C(c2ccccc2)C[C@@H]2CC[C@H]1N2C,inconclusive: 0.749%,–
Cc1ccc2c(CN3CC=C(c4ccccc4)CC3)cc(=O)oc2c1C,–,"inconclusive: 16.4 µM [falling, partial curve]"

# Looked up by structure from the list above, two records:
Structure (SMILES),"activity change, negative = inhibition",Potency
O=C(COc1ccc2ccccc2c1)N1CCN(Cc2c[nH]c3ccccc23)CC1,inconclusive: -19.4%,–
COC(=O)C1=C(c2ccccc2)C[C@@H]2CC[C@H]1N2C,inconclusive: 0.749%,–

# Remaining list, next part:

Structure (SMILES),"activity change, negative = inhibition",Potency
C[C@]12CC[C@@H](O)C[C@@H]1CC[C@@H]1[C@@H]2CC[C@]2(C)C(=O)CC[C@@H]12,inactive: -12.8%,–
CN1CC(C(=O)c2cccc(C(F)(F)F)c2)C(c2ccc(Cl)cc2)C1 (centres undefined),inactive: -0.212%,–
Cc1ccc2c(c1)C1CN(C)CCC1N2C(=O)CCCN1C(=O)c2cccc3cccc(c23)C1=O (centres undefined),inconclusive: 29.8%,–
C[C@@H]1O[C@@H](O[C@H]2C[C@@H](O)[C@]3(CO)[C@H]4[C@H](O)C[C@]5(C)[C@@H](C6COC(=O)C6)CC[C@]5(O)[C@@H]4CC[C@]3(O)C2)[C@H](O)[C@H](O)[C@H]1O (some centres undefined),inconclusive: 4.84%,–
COc1ccc(/C=C2/C(=O)NC(=S)N(C3CC3)C2=O)cc1CN1C(=O)c2ccccc2C1=O,–,"inconclusive: 20.6 µM [falling, partial curve, poor fit]"
CN(C)c1ccc(/C=C/c2cc[n+](C)c3ccccc23)cc1,inactive: 1.82%,–
CC(C)[C@H]1C(=O)O[C@H](C(C)C)C(=O)N(C)[C@@H](C(C)C)C(=O)O[C@H](C(C)C)C(=O)N(C)[C@@H](C(C)C)C(=O)O[C@H](C(C)C)C(=O)N1C,inconclusive: -11.5%,–
O=c1[nH]c2ccccc2n1CCCN1CCC(n2c(=O)[nH]c3cc(Cl)ccc32)CC1,–,"inconclusive: 7.08 µM [falling, partial curve, poor fit]"
COc1ccc2oc(=O)c(C(=O)OCc3ccccc3)cc2c1,inconclusive: 1.86%,–
CCCCn1c(=O)c(C(=O)Nc2nnc(C(C)C)s2)c(O)c2ccccc21,inconclusive: -13.1%,–
CN1C2CCC1/C(=C/c1ccccn1)C(=O)/C2=C\c1ccccn1,–,"inconclusive: 0.411 µM [falling, partial curve, poor fit]"
O=C1C=C2C=C[C@H]3C[C@]2(O1)[C@@H]1CCCCN13,inconclusive: -16.1%,–
CCCCOCCCn1c(N)c(C(=O)OCCOC)c2nc3ccccc3nc21,–,"inconclusive: 35.5 µM [falling, single point]"
CN(C)P(=O)(C(Cl)=C(N1CCCCC1)N1CCCCC1)N(C)C,inconclusive: -11.1%,–
COc1ccc(N/N=C/c2c(O)n(-c3cccc(C)c3)c(=O)[nH]c2=O)cc1,inactive: 1.1%,–
CC(=O)OC1N=C(c2ccccc2)c2cc(C)ccc2NC1=O (centres undefined),inactive: -2.48%,–
COc1cccc(C(=O)C2CCCN(Cc3cccc4c3OCO4)C2)c1 (centres undefined),–,"inconclusive: 35.5 µM [falling, single point]"
O=C1NC(=O)N(c2ccccc2)C(=O)/C1=C\C=C\c1ccccc1,inconclusive: -11.9%,–
COc1cccc(CNC(=O)Cn2c(=O)oc3cc(S(=O)(=O)N4CCCCCC4)ccc32)c1,inconclusive: 6.73%,–
CC(C)c1ccc(-n2c(-c3ccccc3)c[n+]3c2CCc2ccccc2-3)cc1,inconclusive: -0.252%,–
O=c1oc2ccccc2n1CCCOc1ccccc1,inconclusive: 12.9%,–
CC(C)[N+](C)(CCC(C(N)=O)(c1ccccc1)c1ccccc1)C(C)C,–,"inconclusive: 5.62 µM [falling, single point]"
CCN(CC)CCOC(=O)c1ccc(N=Cc2c(O)[nH]c(=O)[nH]c2=O)cc1,inconclusive: 8.04%,–

Structure (SMILES),"activity change, negative = inhibition",Potency
COC(=O)C(O)(c1ccc(NC(=S)NC(=O)c2ccc(Cl)cc2Cl)c(C)c1)C(F)(F)F (centres undefined),inconclusive: -6.87%,–
COc1ccccc1N(CC(=O)NC1CCCC1)C(=O)c1cnn(C(C)C)c1,–,"inconclusive: 20.6 µM [falling, partial curve, poor fit]"
Cc1cc(C)n(-c2ccc(NN=C(C#N)C#N)cc2)n1,–,"inconclusive: 3.55 µM [rising, full curve, poor fit]"
c1ccc2sc(N3CCNCC3)nc2c1,inconclusive: 1.51%,–
C[C@]12CCC3C(CC[C@H]4C[C@H](O)CC[C@]34C)C1CC(=O)[C@@H]2O (some centres undefined),inconclusive: 0.131%,–
Cc1ccc(S(=O)(=O)c2ccc([N+](=O)[O-])cn2)cc1,–,"inconclusive: 5.62 µM [falling, single point]"
O=C(Nc1cccc(Cl)c1)OC1CN2CCC1CC2 (centres undefined),inconclusive: 11.6%,–
O=C1N(c2ccc(Cl)cc2)C(c2cccnc2)N2CCCN12 (centres undefined),–,"inconclusive: 2.24 µM [rising, full curve, poor fit]"
O=S(=O)(c1ccccc1)N1CCN(c2ccnc3cc(Cl)ccc23)CC1,–,"inconclusive: 14.1 µM [falling, partial curve, poor fit]"
CCCCn1c(O)c(C(C)=NCCCn2ccnc2)c(=O)[nH]c1=O,–,"inconclusive: 4.11 µM [falling, partial curve, poor fit]"
CC(=NCC1CCCO1)c1c(O)n(-c2ccc(Cl)cc2)c(=O)[nH]c1=O (centres undefined),inconclusive: 10.5%,–
COc1ccc(N2C(=O)/C(=C/c3cccs3)C(=O)NC2=S)cc1,inconclusive: 7.45%,–
Cc1nc2ccccc2n1C1CCN(Cc2nnnn2CCc2ccccc2)CC1,inconclusive: -1.98%,–
Cc1nc2ccccc2c(=O)n1/N=C/c1ccc(O)cc1O,inconclusive: -11.5%,–
CC(=O)OC(C)(C)/C=C/C(=O)[C@](C)(O)[C@H]1[C@H](O)C[C@@]2(C)[C@@H]3CC=C4[C@H](C[C@H](O)C(=O)C4(C)C)[C@]3(C)C(=O)C[C@]12C,inconclusive: -19.9%,–
O=C1NC(=O)N(c2ccccc2)C(=O)/C1=C\c1ccccc1[N+](=O)[O-],inconclusive: -22.8%,–
O=C1NC(=O)C2=Cc3ccc(O)cc3OC2(O)N1 (centres undefined),–,"inconclusive: 35.5 µM [falling, single point]"
C=C1C(=O)O[C@@H]2C[C@@H](C)[C@@H]3C4OC4C(=O)[C@@]3(C)[C@@H](O)[C@H]12 (some centres undefined),inconclusive: 20.2%,–
CCc1ccccc1N1C(=O)/C(=C/c2ccc(N3CCN(C)CC3)o2)C(=O)NC1=S,inconclusive: -1.01%,–
O=C(Nc1ccc(Cl)cc1Cl)c1cc(S(=O)(=O)NCc2ccc3c(c2)OCO3)ccc1F,inconclusive: 5.31%,–
CC(C)CCOC(=O)c1c(N)n(CC2CCCO2)c2nc3ccccc3nc12 (centres undefined),inconclusive: 21.9%,–
CCOC(=O)Cn1cc([N+](=O)[O-])nc1[N+](=O)[O-],inconclusive: -20.9%,–
Cc1cc(NC(=O)CCl)no1,–,"inconclusive: 35.5 µM [falling, single point]"
